Values of other authors as cited in patent publication US20200315965A1, “NANOEMULSION CONCENTRATE FORMULATIONS AND METHODS” (priority 2019, published 2020).
Some of these results come from one statement about several compounds together.

Details: clinical studies, as low as

CCCCCc1cc(O)c2c(c1)OC(C)(C)[C@@H]1CCC(C)=C[C@@H]21 [THC, tetrahydrocannabinol]
oral bioavailability: 5-10%
